Our source for the binding values is publication PMC5788582.

These are yes or no findings as the source states them, for the method shown. In cells and extracts the contact can be indirect. Some results given as binding are weak or reduced against the parent protein; the word gives no strength.

The target of this experiment is Aurora B kinase (endogenous, 293T) (human (endogenous in 293T)) (UniProt Q96GD4). The experiment is described as follows: co-IP; 293T cell extracts expressing HA-PLK1 WT or HA-PLK1 AA; IP with anti-Aurora B kinase antibody.

Consider “HA-PLK1 AA (transfected in 293T cells) (from UniProt P53350 1-603) (enzyme)”, for which the binding entry is “binds”.

With “HA-PLK1 WT (transfected in 293T cells) (from UniProt P53350 1-603) (enzyme)”, the binding entry is reported as “binds”.
